# Assay results: PubChem BioAssay AID588497 (NMMLSC, 2011)
# Hit rate of the full screen: of about 360,000 compounds, about 780 (0.22%) were called active. The shares of active, inactive and inconclusive entries below differ from those in the screen. Cut-off read from the data, not from the text of the source: active = inhibition above about 35% (passing the limit was not always enough); inconclusive = no clear call, values can overlap the other calls.
# System: Botulinum neurotoxin type F light chain protease (Clostridium botulinum)
# Assay: BoNT/F light chain protease inhibitors, primary screen, biochemical, flow cytometry, MLPCN library (AID 588497); note: plate controls were buffer without enzyme for full effect and enzyme alone for no effect
# Details: Multiplex microsphere protease cleavage assay, at 10 µM, hits give high values
row,Structure (SMILES),inhibition
1,CCOC(=O)c1oc2ccccc2c1NC(=O)CCl,inconclusive: 0.8%
2,Cc1ccc(NC(=O)c2cc(N3C(=O)C4CC=CCC4C3=O)ccc2N2CCCCC2)cc1 (stereo not given),inactive: -12.9%
3,CN(c1ccccc1)S(=O)(=O)c1cccc(NC(=O)Cn2cnc3ccccc3c2=O)c1,inconclusive: -35.4%
4,CNC(=O)O/N=C(\C)Cc1nnn(-c2cc(C)on2)n1,inconclusive: -44.6%
5,O=C(CCC1COc2ccccc2O1)Nc1ccccn1 (stereo not given),inconclusive: 27.4%
6,COC(=O)c1ccc(Oc2c(C)oc3c(CN4CCN(C)CC4)c(O)ccc3c2=O)cc1,inactive: -8%
7,C[C@H]1COC(=O)[C@H](Cc2ccc(F)cc2)CC/C=C/C[C@@H](CC(=O)N(CCO)Cc2ccccc2)C(=O)N1,inactive: 0%
8,COc1ccccc1-n1c(CCC(=O)O)ccc1-c1ccccc1,inactive: -1.4%
9,CC1CCCN(S(=O)(=O)c2ccc3c(c2)c(=O)nc2ccccn23)C1 (stereo not given),inactive: 9.8%
10,Cc1cccc(C)c1-n1nnnc1C1c2ccccc2C(=O)N1CCc1ccccc1F (stereo not given),inactive: -4%
11,O=C1Nc2ccccc2C12OCC1(CO2)COC2(OC1)C(=O)Nc1ccccc12 (stereo not given),inconclusive: -273%
12,COc1ccc([C@H]2CC(=O)c3c(O)cc(O)cc3O2)cc1O,inconclusive: -11.4%
13,Oc1ccc(C=NNC(=S)Nc2ccc(F)cc2)c(O)c1,inactive: -7.8%
14,CCOc1ccc(/C=C/C2=Cc3c(sc(NC(=O)CSc4n[nH]c(N)n4)c3C#N)C(C)(C)C2)cc1,active: 37.1%
15,CN1CCN(c2ccc([N+](=O)[O-])c3no[n+]([O-])c23)CC1,inactive: 1.6%
16,COC(=O)c1c(NC(=O)CC2SC(N)=NC2=O)sc(C)c1C (stereo not given),inactive: 3.2%
17,CCOC(=O)c1ccc(NS(=O)(=O)N2CCCCCC2)cc1,inconclusive: -17.1%
18,CCN(CC(=O)NCc1ccco1)S(=O)(=O)c1ccc(OC)cc1,inconclusive: -1.6%
19,CC(C)N=C1CC(C)(C)CC(=O)/C1=C(/O)CCCN1C(=O)c2ccccc2C1=O,inactive: -8%
20,COC(=O)CCC(=O)N1CCCC(CO)(Cc2ccccc2F)C1 (stereo not given),inconclusive: -13.8%
21,Cc1cc(=O)oc2cc(OCC(=O)NCCc3ccccc3)ccc12,inactive: 1.6%
22,COc1ccc(CCN2CCCC(CN(C)Cc3cc(OC)ccc3OC)C2)cc1 (stereo not given),inconclusive: -15.4%
23,Cc1cc2c(=O)n(C)c(SCC(=O)NC3CCCC3)nc2s1,inconclusive: 1.9%

row,Structure (SMILES),inhibition
1,O=c1[nH]c2c(oc3ccccc32)c(=O)n1Cc1ccccc1,inconclusive: 16.3%
2,CN(CCOc1cccc2ccccc12)Cc1ccccc1,inconclusive: -2.2%
3,O=C(CC(=O)N/N=C/c1ccc(F)cc1)N/N=C/c1ccc(F)cc1,inconclusive: 21.1%
4,C=CCOC(=O)COc1ccc2c(C)c(C)c(=O)oc2c1,inconclusive: -8.6%
5,O=C(NCc1ccco1)c1ccccc1-c1nc(-c2ccccc2)no1,inactive: -3.7%
6,COc1cccc(C(C)NC(=O)Cc2cccs2)c1 (stereo not given),inconclusive: 15.1%
7,COc1ccccc1NC(=O)Cn1nnc(-c2ccccc2NC(=O)c2cc3ccccc3oc2=O)n1,inactive: -3.6%
8,O=C(Nc1ccc(N2CCOCC2)c(Cl)c1)c1ccc(Cl)cc1,inactive: -1.9%
9,COc1ccc(Cl)cc1C(=O)O/N=C(\N)c1ccccn1,inconclusive: 0.2%
10,O=c1[nH]c(/C=C\c2cccc(O)c2)nc(O)c1[N+](=O)[O-],inconclusive: -0.4%
11,Cc1ccc(S(=O)(=O)Nc2ccccc2C(=O)N2CCCCCC2)cc1,inactive: -3.4%
12,Cn1nc2c3ccccc3n(Cc3ccc(F)cc3)c2nc1=S,inconclusive: 14.9%
13,COc1ccc(-n2nnnc2SCC(=O)Nc2ccc(OC)cc2OC)cc1,inconclusive: -28.5%
14,O=C(CN1CCN(S(=O)(=O)N2CCCCCC2)CC1)Nc1ccc(Br)cc1,inactive: -4%
15,Cc1ccccc1Oc1nc(-c2ccccn2)nc2ccccc12,inconclusive: -11.3%
16,CSc1ccc(S(=O)(=O)NCC(=O)OCC(=O)N2CCC(C)CC2)cc1[N+](=O)[O-],inactive: 0.3%
17,CCc1cccc(NC(=O)C2CC2c2ccccc2)c1 (stereo not given),active: 36%
18,CCCCc1nnc(NC(=O)c2oc3ccccc3c2C)s1,inconclusive: 1.7%
19,Cn1c(N)c(C(=O)Nc2cccc(Cl)c2)c(=O)n(C)c1=O,inconclusive: 12%
20,CC1(C)CC2CC(C)(CN2S(=O)(=O)c2cccc(C(=O)OCC(=O)NC(N)=O)c2)C1 (stereo not given),inconclusive: -109%
21,O=C(CN1C(=O)NC2(CCCCC2)C1=O)Oc1ccc2c(C(F)(F)F)cc(=O)oc2c1,inconclusive: -2%
22,COC(=O)c1c(C)oc(C)c1S(=O)(=O)N(Cc1ccccc1)C(C)C,inconclusive: -27.4%
23,CCCCCCCCN1C(=O)[C@H](CC(=O)NCCCCc2ccccc2)C[C@@]2(C(=O)OCC)CCCC=C12,inactive: -4.2%

row,Structure (SMILES),inhibition
1,O=C(O)c1ccccc1NC(c1ccccc1)c1ccc(Cl)cc1 (stereo not given),inconclusive: 3.2%
2,c1ccc(OCCn2cnc3ccccc32)cc1,inactive: 24.6%
3,Nc1nnc(SCc2ccccc2F)n1-c1ccccc1,inconclusive: 3%
4,CCOC(=O)CCNC(=O)N1CCCC(N(C)CCc2ccccc2)C1 (stereo not given),inconclusive: 1.8%
5,O=C(O)CSCC(=O)Nc1ccc(Br)c(C(F)(F)F)c1,inconclusive: -50.6%
6,COc1ccccc1CNC(=O)COC(=O)c1ccc(S(=O)(=O)N2CCCC2)cc1,inconclusive: 22%
7,Cc1ccc(Sc2nc(C)c([N+](=O)[O-])c(C)c2C#N)cc1,inconclusive: -28.1%
8,Cc1cccc(NC(=O)C2CCN(S(=O)(=O)c3ccc4c(c3)OCCCO4)CC2)n1,inconclusive: -3.8%
9,CCC/C(C)=C/c1ccc(CC)cn1,inconclusive: -0.9%
10,COc1ccc(C2c3c(ccc4ccccc34)Oc3ncn4nc(CO/N=C/c5ccccc5)nc4c32)cc1 (stereo not given),inconclusive: 1.1%
11,O=C(CCn1cnc2ccccc21)N/N=C/c1ccc(O)cc1,inactive: -1.7%
12,S=C(NCc1ccccc1)Nc1cccc(Cl)c1,inactive: -10.2%
13,COc1ccc2c(CN3CCCC3)cc(=O)oc2c1,inactive: -0.5%
14,COC(=O)[C@]12CCCCC=C1N(CCC1=CCCCC1)C(=O)[C@H](CC(=O)N1CCCC1)C2,inactive: 0.5%
15,O=C(N/N=C/c1c(O)n(Cc2ccccc2)c(=O)[nH]c1=O)c1ccccc1O,inactive: -7.4%
16,O=[N+]([O-])c1ccccc1/C=C/CN1CCN(Cc2ccc3c(c2)OCO3)CC1,inconclusive: -11.3%
17,C=CCn1c(O)c(C(C)=Nc2cccc(C(F)(F)F)c2)c(=O)[nH]c1=O,inconclusive: 4.2%
18,CN(C)CCn1c(NCc2ccc3c(c2)OCO3)nc2ccccc21,inconclusive: -33.8%
19,COCC(=O)OCn1nnc2ccccc2c1=O,inconclusive: -18.6%
20,O=C1Nc2ccccc2N=C(c2ccccc2)C1N1CCOCC1 (stereo not given),inactive: -0.8%
21,Cn1c(=O)c([N+](=O)[O-])c(NC2CCS(=O)(=O)C2)c2ccccc21 (stereo not given),inconclusive: 28%
22,CCOc1ccc(N2C(=O)C(Cl)=C(N3CCOCC3)C2=O)cc1,inconclusive: -19.3%
23,O=C(O)c1cccc2c1C(=O)N(C1CCCC1)C2,inconclusive: 21.6%

row,Structure (SMILES),inhibition
1,CCCC(C(=O)NCCC(C)C)N(Cc1ccc(F)cc1)C(=O)c1snc(C(N)=O)c1N (stereo not given),inconclusive: 29.3%
2,COC(=O)C[C@H](NC(=O)Cn1cnc2c(NCc3ccccc3)ncnc21)C(=O)OC,inactive: -5.5%
3,O=C(O)c1[nH]c2ccccc2c1C(c1cc(Cl)cc([N+](=O)[O-])c1O)c1c(C(=O)O)[nH]c2ccccc12,inconclusive: -42.1%
4,O=C(Nc1ccccc1C(=O)O)c1ccc(N2C(=O)C3CC=CCC3C2=O)cc1 (stereo not given),inconclusive: -20.7%
5,Cc1ccc(C(=O)C[n+]2cccc3ccccc32)cc1,active: 53.3%
6,COC(=O)c1ccc(N=C2SCC(=O)N2C)cc1,inconclusive: 7.4%
7,CCN(CC(=O)Nc1c(F)cccc1F)C(=O)c1nn(C)c(=O)c2ccccc12,inactive: -4%
8,O=C(CCc1nnc(COc2ccccc2)o1)NCc1ccccc1C(F)(F)F,inactive: -11.7%
9,COc1cc(CO)ccc1Oc1nc2ccccc2n2cnnc12,inconclusive: -11.1%
10,CCCCNC(=O)NNC(=O)c1cc(C)on1,inconclusive: 31.9%
11,O=C(COc1ccccc1F)N1N=C(c2cccs2)CC1c1ccco1 (stereo not given),inconclusive: -3.9%
12,O=C(/C=C/c1ccco1)NC(=S)Nc1ccccc1,inconclusive: -3.8%
13,CCOc1ccc(NC(=O)Nc2nc(SCC)ns2)cc1,inconclusive: 8.1%
14,Cc1ccc(O)c(NC(=O)c2ccc3c(c2)C(=O)N(CC(C)C)C3=O)c1,inconclusive: 3.5%
15,CNC(=O)COC(=O)c1cc(NC(=O)c2ccco2)c(OC)c(OC)c1,inconclusive: 11.2%
16,CCOC(=O)N1CCN(S(=O)(=O)CCNC(=O)c2ccc(OC)cc2)CC1,inconclusive: -11.8%
17,CCOC(=O)C1(CCc2ccccc2)CCN(Cc2cc(OC)c(OC)cc2OC)CC1,inconclusive: -14.5%
18,COc1ccc(C(=O)Nc2ccc3c(c2)nc2n3CCSC2)cc1,active: 38.1%
19,Cc1ccc(O)c(C=Nc2cc(C)ccc2O)c1,inactive: 0.8%
20,CC(=O)N(c1nnc(-c2cccc(C)c2)s1)C1CCCC1,inconclusive: 6.5%
21,COc1ccc(/C=N/n2c(-c3n[nH]c4c3CCC4)n[nH]c2=S)c(OC)c1OC,inconclusive: 0.9%

# 25 compounds already listed, sorted by molar mass, smallest number first:
row,Structure (SMILES),inhibition
10,CCCCNC(=O)NNC(=O)c1cc(C)on1,inconclusive: 31.9%
19,Cc1ccc(O)c(C=Nc2cc(C)ccc2O)c1,inactive: 0.8%
23,O=C(O)c1cccc2c1C(=O)N(C1CCCC1)C2,inconclusive: 21.6%
19,COCC(=O)OCn1nnc2ccccc2c1=O,inconclusive: -18.6%
5,Cc1ccc(C(=O)C[n+]2cccc3ccccc32)cc1,active: 53.3%
6,COC(=O)c1ccc(N=C2SCC(=O)N2C)cc1,inconclusive: 7.4%
12,O=C(/C=C/c1ccco1)NC(=S)Nc1ccccc1,inconclusive: -3.8%
20,CC(=O)N(c1nnc(-c2cccc(C)c2)s1)C1CCCC1,inconclusive: 6.5%
20,O=C1Nc2ccccc2N=C(c2ccccc2)C1N1CCOCC1 (stereo not given),inactive: -0.8%
9,COc1cc(CO)ccc1Oc1nc2ccccc2n2cnnc12,inconclusive: -11.1%
13,CCOc1ccc(NC(=O)Nc2nc(SCC)ns2)cc1,inconclusive: 8.1%
21,Cn1c(=O)c([N+](=O)[O-])c(NC2CCS(=O)(=O)C2)c2ccccc21 (stereo not given),inconclusive: 28%
18,CN(C)CCn1c(NCc2ccc3c(c2)OCO3)nc2ccccc21,inconclusive: -33.8%
14,Cc1ccc(O)c(NC(=O)c2ccc3c(c2)C(=O)N(CC(C)C)C3=O)c1,inconclusive: 3.5%
17,C=CCn1c(O)c(C(C)=Nc2cccc(C(F)(F)F)c2)c(=O)[nH]c1=O,inconclusive: 4.2%
15,CNC(=O)COC(=O)c1cc(NC(=O)c2ccco2)c(OC)c(OC)c1,inconclusive: 11.2%
11,O=C(COc1ccccc1F)N1N=C(c2cccs2)CC1c1ccco1 (stereo not given),inconclusive: -3.9%
4,O=C(Nc1ccccc1C(=O)O)c1ccc(N2C(=O)C3CC=CCC3C2=O)cc1 (stereo not given),inconclusive: -20.7%
16,CCOC(=O)N1CCN(S(=O)(=O)CCNC(=O)c2ccc(OC)cc2)CC1,inconclusive: -11.8%
7,CCN(CC(=O)Nc1c(F)cccc1F)C(=O)c1nn(C)c(=O)c2ccccc12,inactive: -4%
8,O=C(CCc1nnc(COc2ccccc2)o1)NCc1ccccc1C(F)(F)F,inactive: -11.7%
2,COC(=O)C[C@H](NC(=O)Cn1cnc2c(NCc3ccccc3)ncnc21)C(=O)OC,inactive: -5.5%
17,CCOC(=O)C1(CCc2ccccc2)CCN(Cc2cc(OC)c(OC)cc2OC)CC1,inconclusive: -14.5%
1,CCCC(C(=O)NCCC(C)C)N(Cc1ccc(F)cc1)C(=O)c1snc(C(N)=O)c1N (stereo not given),inconclusive: 29.3%
3,O=C(O)c1[nH]c2ccccc2c1C(c1cc(Cl)cc([N+](=O)[O-])c1O)c1c(C(=O)O)[nH]c2ccccc12,inconclusive: -42.1%
